From US9962341B2, “Active pharmaceutical ingredient (API) comprising cannabinoids for use in the treatment of cancer” (GW Pharma Limited, priority 2014, dated 2018)

How the values were obtained:
ACHN = experiment: Cell viability (CellTiter-Blue, 72 h), ACHN renal cancer cells; type: cell-based; details: 1% FBS
Experimental: (§1) The following cell lines were tested in this example: Lung Cancer (A549, NCI-H460); Pancreatic cancer (PANC1, Mia-Pa-Ca-2); Melanoma (WM115, A375); Ovarian cancer (OVCAR3, SKOV3); Gastric cancer (MKN45, HGC-27); Renal cancer (ACHN) and Bladder Cancer (RT112).
(§2) Each tumour cell line was maintained in vitro in RPMI 1640+10% heat inactivated FBS and 2 mM L-glutamine (growth media) at 37° C. in 5% CO2 and humidified conditions. The cells were harvested, washed, re-suspended into growth medium and counted. The cells were re-suspended into assay media (RPMI 1640+5% heat inactivated FBS+ and 2 mM L-glutamine) at 4×10^4 cells/ml (dependent upon cell type) and plated into the middle 240 wells of 384 well tissue culture plates (Corning CellBind, black-wall plates) 25 μl/well aliquots; 50 μl of growth media was aliquoted into the outer wells. There were 3 plates for each cell line.
(§3) The plates were incubated overnight at 37° C., in 5% humidified CO2.
(§4) The phytocannabinoid test compounds were prepared in 100% DMSO vehicle at a stock concentration of 20 and 40 mM.
(§5) Starting with the 20 mM stock in DMSO, this was serially diluted (2 fold) in DMSO in a 96-well plate, to 20 (no dilution), 10, 5, 2.5, 1.25, 0.625, 0.315, 0.157 and […]. Following this, 10 ul of each compound dilution was diluted into 990 ul of 1% (v/v) FBS media in a deep well block making the final concentrations of 200, 100, 50, 25, 12.5, 6.25, 3.125, 1.56 and 0.79 μM (2× final assay concentrations and 1% DMSO).
(§6) An equal volume of each cannabinoid in the combination (stock concentration 40 mM) was mixed together to make a stock of 20 mM of each cannabinoid in DMSO. This was serially diluted (2 fold) in DMSO in a 96-well plate, to 20 (no dilution), 10, 5, 2.5, 1.25, 0.625, 0.315, 0.157 and […]. Following this, 10 ul of each combination dilution was diluted into 990 ul of 1% (v/v) FBS media in a deep well block making the final concentrations of 200, 100, 50, 25, 12.5, 6.25, 3.125, 1.56 and 0.79 μM (2× final assay concentrations and 1% DMSO).
(§7) Taxotere SOC was prepared in 100% DMSO to give a stock concentration of 10 mM. This was diluted in DMSO from the stock solution to 200 μM, then serially diluted (3-fold) in DMSO to 200 (no dilution), 66.66, 22.22, 7.41, 2.47, 0.82, 0.27, 0.09, 0.03 μM. 10 ul of each of the taxotere dilutions was diluted in 990 ul of 1% (v/v) FBS media making the final concentrations of 2, 0.67, 0.22, 0.074, 0.0247, 0.0082, 0.0027 0.0009, 0.0003 μM (2× final assay concentrations and 1% DMSO).
(§8) The plates were incubated for 72 h at 37° C. in 5% humidified CO2. To develop the plates, at 72 h, 10 μl of CellTiter-Blue™ reagent was added to each test/blank well.
(§9) The plates were incubated at 37° C., 5% humidified CO2. Fluorescence was measured using a Flex II Station plate reader (570 nm excitation wavelength, 600 nm emission wavelength, 590 nm cut-off) after 3 h.
(§10) The phytocannabinoid compounds CBD, CBGA, CBG, CBDA, THCV and THC were tested on a panel of lung (A549, NCI-H460), pancreatic (PANC1, Mia-Pa-Ca-2), melanoma (WM115, A375), ovarian (OVCAR3, SKOV3), gastric (MKN45, HGC-27), renal (ACHN) and bladder (RT112) cancer cell lines according to the protocol for 72 h in media containing 1% FBS.
(§11) The IC50 values for each phytocannabinoid and combination of CBD with the other phytocannabinoids was calculated for each cell line. The raw data values expressed in relative fluorescent units were normalised to the vehicle for each individual plate and any reduction in fluorescence indicated a decrease in viability.
(§12) This calculation was as described in Example 1 above.

NCI-H460 = experiment: Cell viability (CellTiter-Blue, 72 h), NCI-H460 lung cancer cells; type: cell-based; details: NCI-H460, 1% FBS
Experimental: as §1, §2, §3, §4, §5, §6, §7, §8, §9, §10, §11, §12

SMILES	m (shape parameter of the curve) (ACHN)	m (shape parameter of dose effect curve) (NCI-H460)
CCCCCc1cc(O)c(C/C=C(\C)CCC=C(C)C)c(O)c1C(=O)O [CBGA, Cannabigerolic acid]	6.02	2.68
CCCCCc1cc(O)c(C/C=C(\C)CCC=C(C)C)c(O)c1 [CBG, Cannabigerol]	7.00	13.62
CCCc1cc(O)c2c(c1)OC(C)(C)[C@@H]1CCC(C)=C[C@@H]21 [THCV, Tetrahydrocannabivarin]	6.63	4.47
C=C(C)[C@@H]1CCC(C)=C[C@H]1c1c(O)cc(CCCCC)c(C(=O)O)c1O [CBDA, Cannabidiolic acid]	3.57	3.32
C=C(C)[C@@H]1CCC(C)=C[C@H]1c1c(O)cc(CCCCC)cc1O [CBD, Cannabidiol]	9.47	6.24
